Data: patent publication US20250169495A1, “COMPOSITIONS AND METHODS FOR CONTROLLING DROSOPHILA FLIES” (Rutgers, The State University of New Jersey, priority 2023, published 2025)
Some of these results come from one statement about several compounds together.

System: Drosophila suzukii adults
Experiment: Pairwise choice bioassays with blueberries
Assay type: in vivo
Details: dual choice, blueberry fruit with compound vs blueberry fruit without; 24 h; n=5

Compound	repellency [%]
CCOC(=O)C(C)C [ethyl 2-methylpropanoate]	≥ 80
C/C=C/C(=O)OCC [ethyl (E)-but-2-enoate]	≥ 90
CCCC(=O)OCC [ethyl butanoate]	≥ 90
